Measured data: PubChem BioAssay AID504793 (Drosophila RNAi Screening Center, 2011)
Assay: 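Knock-downs allowing continued mitosis even though DNA is damaged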 (primary screen). System: Drosophila S2R+ cells. Knock-down reagent: long dsRNA against Drosophila genes, about 0.25 µg dsRNA per well. Time to read-out: 4 days of dsRNA, then 4 hours of drug before read-out. Conditions: doxorubicin 0.5 µM for 4 hours to cause double-strand breaks, in cells also given a low, harmless dose of dsRNA against nbs to sensitise the assay. Measurement: 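Mitotic index as the number of phospho-histone H3-positive cells in each well following doxorubicin, given as raw counts without normalisation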. Reading the numbers: mitotic cells: higher = more cells in mitosis, weaker G2 arrest. Active means: 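Genes are called active only when high mitotic counts were reproduced with independent dsRNAs and mitosis was checked for delay without damage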. Meaning of the calls: active = confirmed in follow-up tests; inactive = not confirmed.
The deposit covers about 23,000 reagents; this is a random part of those that have a named target and a result. Of all reagents, 62 (0.27%) were called active. 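Calls come from follow-up tests whose scores are not deposited, so confirmed genes may have low counts here; counts are not normalised per plate.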 Raw values are not corrected between plates.

CG11396 (GeneID 40296) [DRSC11654]
- mitotic cells, replicate 1: 5
- call: inactive

EMC2B (GeneID 42045) [DRSC15506]
- mitotic cells, replicate 1: 7
- call: inactive

dpr5 (GeneID 41381) [DRSC15766]
- mitotic cells, replicate 1: 8
- call: inactive

dpr5 (GeneID 41381) [DRSC25239]
- mitotic cells, replicate 1: 9
- call: inactive

Cyp9h1 (GeneID 36412) [DRSC07391]
- mitotic cells, replicate 1: 5
- call: inactive

Cyp9h1 (GeneID 36412) [DRSC26493]
- mitotic cells, replicate 1: 2
- call: inactive

CG10845 (GeneID 42978) [DRSC14272]
- mitotic cells, replicate 1: 14
- call: inactive

Arpc2 (GeneID 35311) [DRSC02113]
- mitotic cells, replicate 1: 7
- call: inactive

CG9822 (GeneID 37440) [DRSC04568]
- mitotic cells, replicate 1: 8
- call: inactive

Mul1 (GeneID 38472) [DRSC08174]
- mitotic cells, replicate 1: 8
- call: inactive

Mul1 (GeneID 38472) [DRSC25694]
- mitotic cells, replicate 1: 3
- call: inactive

mats (GeneID 42634) [DRSC13562]
- mitotic cells, replicate 1: 5
- call: inactive

mats (GeneID 42634) [DRSC14702]
- mitotic cells, replicate 1: 7
- call: inactive

Tango6 (GeneID 35155) [DRSC02671]
- mitotic cells, replicate 1: 25
- call: active

Tango6 (GeneID 35155) [DRSC29389]
- mitotic cells, replicate 1: 17
- call: inactive

Sod2 (GeneID 36878) [DRSC07554]
- mitotic cells, replicate 1: 4
- call: inactive

Sod2 (GeneID 36878) [DRSC27050]
- mitotic cells, replicate 1: 6
- call: inactive

CG7289 (GeneID 33372) [DRSC00697]
- mitotic cells, replicate 1: 6
- call: inactive

SkpE (GeneID 32997) [DRSC19431]
- mitotic cells, replicate 1: 7
- call: inactive

Brd7-9 (GeneID 34062) [DRSC03017]
- mitotic cells, replicate 1: 5
- call: inactive

Brd7-9 (GeneID 34062) [DRSC29592]
- mitotic cells, replicate 1: 6
- call: inactive

Ir75a (GeneID 39982) [DRSC10188]
- mitotic cells, replicate 1: 7
- call: inactive

CG14187 (GeneID 40199) [DRSC10186]
- mitotic cells, replicate 1: 5
- call: inactive

CG14187 (GeneID 40199) [DRSC26776]
- mitotic cells, replicate 1: 8
- call: inactive

CG7367 (GeneID 34094) [DRSC03049]
- mitotic cells, replicate 1: 3
- call: inactive

CG7367 (GeneID 34094) [DRSC28024]
- mitotic cells, replicate 1: 4
- call: inactive

Cyp309a2 (GeneID 33439) [DRSC00526]
- mitotic cells, replicate 1: 3
- call: inactive

Cyp309a2 (GeneID 33439) [DRSC30018]
- mitotic cells, replicate 1: 8
- call: inactive

CG9114 (GeneID 32460) [DRSC20155]
- mitotic cells, replicate 1: 13
- call: inactive

l(2)05287 (GeneID 35374) [DRSC02151]
- mitotic cells, replicate 1: 9
- call: inactive

l(2)05287 (GeneID 35374) [DRSC02152]
- mitotic cells, replicate 1: 4
- call: inactive

l(2)05287 (GeneID 35374) [DRSC26660]
- mitotic cells, replicate 1: 12
- call: inactive

Sidpn (GeneID 35168) [DRSC02056]
- mitotic cells, replicate 1: 5
- call: inactive

Odj (GeneID 42145) [DRSC16234]
- mitotic cells, replicate 1: 10
- call: inactive
